Source: article doi:10.1101/138099 (bioRxiv, 2017)
Positions count from the first letter of the chain named. Numbers in names are those of the source. Results are given in words; binding and its absence hold for the method and conditions named. For part of these data: Binding seen in cells or lysates may run through a third protein.

Legend:
[1] = molecular target: BslA_(C178A,C180A), recombinant BslA_(42-181) variant (Bacillus subtilis) (UniProt P71014); assay: SEC + other: non-reducing SDS-PAGE
[2] = molecular target: BslA_(C178A,C180A) produced in the B. subtilis bslA deletion strain (NRS5179) (Bacillus subtilis) (UniProt P71014); assay: Western blot of a biofilm extract made with reducing agent
[3] = molecular target: BslA_(C178A,C180A) produced in the B. subtilis bslA deletion strain (NRS5179) (Bacillus subtilis) (UniProt P71014); assay: cross-linking
[4] = molecular target: BslA_(Δ172-181) produced in the B. subtilis bslA deletion strain (NRS2957) (Bacillus subtilis) (UniProt P71014); assay: Western blot of a biofilm extract made with reducing agent
[5] = molecular target: BslA_(Δ172-181) produced in the B. subtilis bslA deletion strain (NRS2957) (Bacillus subtilis) (UniProt P71014); assay: cross-linking
[6] = molecular target: BslA_(Δ172-181), recombinant BslA_(42-181) with the C-terminal 10 amino acids removed (Bacillus subtilis) (UniProt P71014); assay: SEC + other: non-reducing SDS-PAGE
[7] = molecular target: BslA, wild type, from the B. subtilis NCIB3610 biofilm (Bacillus subtilis (endogenous in NCIB3610)) (UniProt P71014); assay: Western blot of a biofilm extract made with reducing agent
[8] = molecular target: BslA_(C178A) produced in the B. subtilis bslA deletion strain (NRS5177) (Bacillus subtilis) (UniProt P71014); assay: as above
[9] = molecular target: BslA_(C180A) produced in the B. subtilis bslA deletion strain (NRS5178) (Bacillus subtilis) (UniProt P71014); assay: as above

B1: BslA_(C178A,C180A), recombinant BslA_(42-181) variant (domain or fragment, UniProt P71014 42-181)
chain: MRTQSTASLFATITGASKTEWSFSDIELTYRPNTLLSLGVMEFTLPSGFTANTKDTLNGNALRTTQILNNGKTVRVPLALDLLGAGEFKLKLNNKTLPAAGTYTFRAENKSLSIGNKFYAEASIDVAKRSTPPTQPAGAN
- binding [1]: no binding

B2: BslA_(C178A,C180A) produced in the B. subtilis bslA deletion strain (NRS5179) (protein, UniProt P71014 29-181)
chain: AESTSTKAHTESTMRTQSTASLFATITGASKTEWSFSDIELTYRPNTLLSLGVMEFTLPSGFTANTKDTLNGNALRTTQILNNGKTVRVPLALDLLGAGEFKLKLNNKTLPAAGTYTFRAENKSLSIGNKFYAEASIDVAKRSTPPTQPAGAN
- binding [2]: no binding (tested: 10 mM DTT)
- binding [3]: no binding

B3: BslA_(Δ172-181) produced in the B. subtilis bslA deletion strain (NRS2957) (domain or fragment, UniProt P71014 29-171)
chain: AESTSTKAHTESTMRTQSTASLFATITGASKTEWSFSDIELTYRPNTLLSLGVMEFTLPSGFTANTKDTLNGNALRTTQILNNGKTVRVPLALDLLGAGEFKLKLNNKTLPAAGTYTFRAENKSLSIGNKFYAEASIDVAKRS
- binding [4]: no binding (tested: 10 mM DTT)
- binding [5]: no binding

B4: BslA_(Δ172-181), recombinant BslA_(42-181) with the C-terminal 10 amino acids removed (domain or fragment, UniProt P71014 42-171)
chain: MRTQSTASLFATITGASKTEWSFSDIELTYRPNTLLSLGVMEFTLPSGFTANTKDTLNGNALRTTQILNNGKTVRVPLALDLLGAGEFKLKLNNKTLPAAGTYTFRAENKSLSIGNKFYAEASIDVAKRS
- binding [6]: no binding

B5: BslA, wild type, from the B. subtilis NCIB3610 biofilm (natural protein, UniProt P71014 29-181, looked up)
chain: B2 chain with A150C, A152C
- binding [7]: no binding (condition: with 10 mM DTT)

B6: BslA_(C178A) produced in the B. subtilis bslA deletion strain (NRS5177) (natural protein, Bacillus subtilis, UniProt P71014 29-181, looked up)
chain: B2 chain with A152C
- binding [8]: no binding (condition: with 10 mM DTT)

B7: BslA_(C180A) produced in the B. subtilis bslA deletion strain (NRS5178) (natural protein, Bacillus subtilis, UniProt P71014 29-181, looked up)
chain: B2 chain with A150C
- binding [9]: no binding (condition: with 10 mM DTT)
